The other results are listed elsewhere or left out.

The test relates to T1, CTL2-GFP (C. trachomatis L2/434/Bu, GFP-expressing).
T1 construct: L2/434/Bu, GFP-expressing
The arrangement: species or system HeLa; Intracellular C. trachomatis growth in HeLa cells, bulk GFP fluorescence relative to DMSO. The note with it: bulk GFP, single well; 28.5 h, 10 µM; inhibitor.
Consider `Cc1cc(C)cc(NC(=O)c2ccccc2NS(=O)(=O)c2cccc(Cl)c2)c1` [CBK113887], for which the “% of control remaining” value was 85.0564%.

For the compound `O=C(c1cccc(-c2cc3ccccc3oc2=O)c1)N1CCN(c2ccc([N+](=O)[O-])cc2Cl)CC1` [CBK269704], the “% of control remaining” value worked out at 101.246%.

For `O=C(O)c1ccccc1CSc1ccccn1` [CBK270213], the “% of control remaining” value stood at 122.766%.

Turning to `Fc1ccc(-c2cccc(Nc3ccc(Oc4ccccc4)cc3)n2)cc1Cl` [CBK037699], the “% of control remaining” value is on record as 155.181%.

As for `COc1cccc2sc(NC(=O)c3ccc4ncsc4c3)nc12` [CBK287365], the “% of control remaining” value amounted to 134.39%.

Regarding `COc1ccc(C)cc1N1CCCN(c2cc(C)ccc2OC)C1=O` [CBK006937], the “% of control remaining” value was found to be 136.659%.

Turning to `Cc1ccc(NC(=O)COc2ccccc2/C=C/C(=O)O)cc1C` [CBK287026], the “% of control remaining” value is 110.87%.

As to `COc1ccc(Cl)cc1NC(=O)CCN1CCN(C)CC1` [CBK278177C], the “% of control remaining” value amounted to 100%.

As to `CCNC(=O)c1ccc(-c2ccc(C(=O)N(C)C)cc2)nc1` [CBK158361], the “% of control remaining” value came out at 114.72%.

On to `S=C1C=C(c2ccccc2)Nc2ccccc2N1` [CBK288438], for which the “% of control remaining” value worked out at 86.4165%.

Consider `CCCCn1c(SCCC(=O)Nc2ccccc2C(=O)c2ccccc2)n[nH]c1=O` [CBK296693], for which the “% of control remaining” value is given as 129.437%.

As to `O=C(NC(c1ccc(-c2ccccc2)cc1)c1cnccn1)C1CCN(C/C=C/c2ccccc2)CC1` (centres unmarked) [CBK147984], the “% of control remaining” value came out at 116.696%.

In the case of `CN(CCN1CCCCC1)C(=O)c1cc2ccc(N(C)C)cc2[nH]1` [CBK281830], the “% of control remaining” value stood at 141.893%.

`CC(=O)Nc1ccccc1-c1nc2ccccc2o1` [CBK287568]: the “% of control remaining” value was found to be 163.739%.

`Cc1ccc(-c2cc(C(=O)N(C)CC3(C)COC3)[nH]n2)cc1` [CBK281717]: the “% of control remaining” value is 133.728%.

For the compound `Cc1ccc(C2(O)CCN(Cc3c(C)nc4sccn34)CC2)cc1` [CBK282734], the “% of control remaining” value was determined as 116.857%.

`O=C(O)CSc1nc(O)c2c(-c3ccccc3)csc2n1` [CBK268067]: the “% of control remaining” value was found to be 107.953%.

For the compound `COc1ccc(C(=O)N2CCC3(CCCN(C(=O)c4cscn4)C3)C2)cc1OC` (centres unmarked) [CBK131659], the “% of control remaining” value was 108.223%.

As for `O=C(O)Cn1cc(C(C(=O)O)N2CCN(c3ccccc3)CC2)c2ccccc21` (centres unmarked) [CBK286625], the “% of control remaining” value is recorded as 151.621%.

For `CC(C)(C)c1cc(C(c2ccccc2O)N2CCOCC2)cc(C(C)(C)C)c1O` (centres unmarked) [CBK262998], the “% of control remaining” value amounted to 51.2941%.

Turning to `Cc1ccnc(Nc2nc3ccccc3o2)n1` [CBK022772], the “% of control remaining” value is 100%.

`Cc1ccc(C)c2c1CCCC2N1CCC(NS(C)(=O)=O)CC1` (centres unmarked) [CBK304038]: the “% of control remaining” value stood at 100%.

Turning to `c1csc(CN2CCC(c3cc4nccnc4[nH]3)CC2)c1` [CBK281520], the “% of control remaining” value was found to be 143.684%.

Regarding `CSc1ncc(CNC(=O)CC2CCc3ccccc32)n1C` (centres unmarked) [CBK307450], the “% of control remaining” value is given as 109.805%.

Take `COc1cc(CN2CCC3(CC2)CN(S(C)(=O)=O)c2ccccc23)cc(OC)c1OC` [CBK126669]: the “% of control remaining” value amounted to 133.302%.

Take `CC(C)(C)c1ccc(S(=O)(=O)N2CCNC(=O)C2)cc1` [CBK051238]: the “% of control remaining” value is recorded as 110.752%.

As to `O=S1(=O)N=C(N2CCN(Cc3ccc4c(c3)OCO4)CC2)c2ccccc21` [CBK266064], the “% of control remaining” value is listed as 114.429%.

On to `CC(C)(C)C(=O)N[C@H]1CO[C@H]2[C@@H]1OC[C@@H]2Nc1nccc(C2CCCC2)n1` [CBK289530], for which the “% of control remaining” value was found to be 105.825%.

Consider `Cc1nc(C)n(CC(=O)N[C@H]2C3CCCCC3[C@@H]2c2ccccc2)n1` (some centres unmarked) [CBK285128], for which the “% of control remaining” value amounted to 136.513%.

On to `CCOC(=O)C(C)n1nc(CC)n2c(cc3ccsc32)c1=O` (centres unmarked) [CBK284127], for which the “% of control remaining” value is listed as 122.137%.

In the case of `O=C(O)C1CC=CCC1C(=O)NCc1ccc(N2CCCC2=O)cc1` (centres unmarked) [CBK270081], the “% of control remaining” value is given as 144.27%.

Consider `CN(CCN1CCCCC1)C(=O)C1Cc2cc(Cl)ccc2O1` (centres unmarked) [CBK282640], for which the “% of control remaining” value is given as 138.412%.

In the case of `O=C(c1ccc2[nH]c(=O)[nH]c2c1)N1CCC2(CCN(C(=O)c3cc(F)c(F)cc3F)C2)C1` (centres unmarked) [CBK131407], the “% of control remaining” value was 95.0915%.

With `Cc1nnnn1-c1ccc(CC(=O)N2CCc3sccc3C2c2ccco2)cc1` (centres unmarked) [CBK285705], the “% of control remaining” value is listed as 114.126%.

In the case of `Cc1ccc(Cl)cc1NC(=O)CCn1cnc2ccccc2c1=O` [CBK270103], the “% of control remaining” value is on record as 125.105%.

With `O=C(c1ccco1)N1CCN(c2cc(-c3cccnc3)ncn2)CC1` [CBK037833], the “% of control remaining” value is 204.613%.

In the case of `CC(=O)Nc1ccc(-c2cncc(Nc3ccc(C#N)cc3)n2)cc1` [CBK066009], the “% of control remaining” value is on record as 190.168%.

In the case of `Cc1nc2cc(C(=O)N3CCc4[nH]c5ccccc5c4C3)ccc2n1C` [CBK281842], the “% of control remaining” value is reported as 110.424%.

Take `CCNC(=O)N1CC2(CCN(CC(=O)c3ccsc3)CC2)c2ccccc21` [CBK144601T]: the “% of control remaining” value turned out to be 109.748%.

On to `CC(=O)N1C[C@@H]2CCCCN(CCc3ccc(F)cc3)[C@@H]2C1` [CBK285495], for which the “% of control remaining” value is 79.3266%.

Turning to `O=C(O)C[C@@H]1CCN(C(=O)C2CCCCC2)C[C@@H]1CC1=NCCc2ccccc21` [CBK289158], the “% of control remaining” value was found to be 131.645%.

As to `CC1(C(=O)NC2CCN(Cc3cccc(F)c3)CC2)CCCO1` (centres unmarked) [CBK282658], the “% of control remaining” value is 130.454%.

In the case of `COC(=O)CCc1ccc(-c2cnc(N)c(-c3ccc(O)cc3)n2)cc1` [CBK122809], the “% of control remaining” value turned out to be 46.2637%.

`CS(=O)(=O)N(Cc1ccccc1)c1ccc(C(=O)N2CCN(Cc3ccccc3)CC2)cc1` [CBK264134]: the “% of control remaining” value is 89.4791%.

`CC(C)Oc1ccc(C(=O)C2=C(O)C(=O)N(CCN(C)C)C2c2ccncc2)cc1` (centres unmarked) [CBK264907]: the “% of control remaining” value is listed as 139.122%.

For `COc1cccc(C(=O)N2CCC(Cc3cccc(-c4cccs4)c3)(C(N)=O)CC2)c1` [CBK285781], the “% of control remaining” value stood at 118.219%.

Consider `O=C(CCSc1ccc(Cl)cc1)NCCN1CCOCC1` [CBK269352], for which the “% of control remaining” value was determined as 116.675%.

Take `COc1cc(F)cc(OC2CCNCC2)c1NC(=O)C1(c2ccccc2)CCCCC1` [CBK050241T]: the “% of control remaining” value was found to be 101.209%.

With `O=C(Nc1cccnc1)c1cccnc1C(=O)O` [CBK269663], the “% of control remaining” value is recorded as 119.857%.

Consider `CCOC(=O)c1c(CSc2ccc(Cl)cc2)n(C)c2cc(Br)c(O)c(CN(C)C)c12` [CBK217489C], for which the “% of control remaining” value stood at 105.626%.

The record behind these values is PMC12040169 (PLOS Biology, 2025).
